Data taken from PubChem BioAssay AID445 (National Center for Advancing Translational Sciences (NCATS), 2006).
This is one part of the list. Further columns of the screen follow, without active or inactive calls. The list favours compounds with an active or inconclusive main result. The note in brackets gives the kind of curve behind each potency; many fits are weak.

Test: IkB Signaling
Conditions: ABC-DLBCL IkBa-CBG/CBR dual luciferase ratio (green luciferase fused to IkBa over red control in OCI-Ly3 lymphoma cells), 4 h
Procedure, shortened: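 In this assay, an IκBα–CBG68 fusion accumulates when IKK-driven degradation is blocked; native CBR normalizes for cell number. OCI-Ly3 cells were treated 4 h with compound and doxycycline, then green and red light read after Chroma-Glo addition.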

[1] = measured here: control luc red channel unless noted

Which AC50 [1] does the source give for `CCc1ccc(N(CC)C(=O)c2cc3c(=O)oc4ccc(C)cc4c3s2)cc1` here?
The AC50 was 39.8 µM [falling, single point].

What does the source list for `O=C(c1ccco1)N1CCN(C(=O)c2cc(-c3ccccn3)nc3ccc(Cl)cc23)CC1`?
AC50 (measured here: IkB-luc green channel): 39.8 µM [rising, single point]; AC50 (measured here: control luc red channel): 7.94 µM [falling, partial curve]

Which AC50 [1] does the source give for `CCN(CC)C(=O)C1=CC(c2ccc3c(c2)OCO3)=NS(=O)(=O)N1C` here?
The AC50 was 15.8 µM [falling, single point].

With `COC(=O)c1ccc(CN(Cc2ccc(OC)c(OC)c2)S(=O)(=O)c2cc(C(=O)Nc3cccc(C)c3)ccc2F)cc1` as the molecule, how does the AC50 [1] read?
Its AC50 is 2.51 µM [falling, full curve].

With `CCC(Oc1ccccc1)C(=O)Nc1ccc(OCc2cc(=O)n3ccc(C)cc3n2)cc1` (stereo not given) as the molecule, how does the AC50 [1] read?
Its AC50 is 25.1 µM [falling, partial curve, poor fit].

Which AC50 [1] does the source give for `COc1ccccc1CNC(=O)c1ccc2c(c1)N(Cc1ccc(C)cc1)CCS2` here?
The AC50 was 12.6 µM [falling, partial curve].

With `CCn1nc(C(=O)OCC(=O)c2c[nH]c3ccccc23)c2ccccc2c1=O` as the molecule, how does the AC50 [1] read?
The AC50 was 20 µM [falling, single point].

Which AC50 [1] does the source give for `Clc1cccc(Nc2ncnc3c2cnn3-c2ccccc2)c1` here?
The AC50 was 10 µM [falling, partial curve].

With `CCN(CC)S(=O)(=O)c1ccc2c(c1)N(CC(=O)NCC(C)c1ccccc1)C(=O)CO2` (stereo not given) as the molecule, how does the AC50 [1] read?
Its AC50 is 7.94 µM [falling, single point].

With `CCn1cc(C(=O)N2CCN(c3ccccc3OC)CC2)c(=O)c2cc(S(=O)(=O)N3CCC(C)CC3)ccc21` as the molecule, how does the AC50 [1] read?
The AC50 was 1 µM [falling, partial curve].

For `O=C(COc1ccccc1)N1CCN(c2ncnc3c2cnn3-c2ccccc2)CC1`, which AC50 [1] is on record?
The AC50 was 39.8 µM [falling, single point].

With `Cc1ccc(-n2ncc3c(N4CCCCCC4)ncnc32)cc1C` as the molecule, how does the AC50 [1] read?
The AC50 was 15.8 µM [falling, partial curve].

With `CCOc1ccc(CNC(=O)CCc2cn(CC)c3ccccc23)cc1` as the molecule, how does the AC50 [1] read?
Its AC50 is 10 µM [falling, partial curve].

With `O=C(NCCc1ccccc1)c1ccc(CSc2nc3ccncc3n2Cc2cccc(F)c2)cc1` as the molecule, how does the AC50 [1] read?
Its AC50 is 10 µM [falling, partial curve].

With `CCCCOc1ccc(CN2C(=O)C(=O)c3cc(C)ccc32)cc1OC` as the molecule, how does the AC50 [1] read?
The AC50 was 5.01 µM [rising, partial curve].

With `COc1ccccc1CNc1ccc(-c2nc(-c3cccc(C)c3)no2)cc1[N+](=O)[O-]` as the molecule, how does the AC50 [1] read?
Its AC50 is 1 µM [rising, full curve].

With `CCOc1ccccc1N1CC(c2nc3ccccc3n2CCCCOc2cc(C)ccc2C)CC1=O` (stereo not given) as the molecule, how does the AC50 [1] read?
Its AC50 is 12.6 µM [falling, partial curve].

With `CC(C)CCNC(=O)c1cc(Sc2ccc(F)cc2F)nc2ccccc12` as the molecule, how does the AC50 [1] read?
The AC50 was 0.794 µM [rising, full curve].

Which AC50 [1] does the source give for `Cc1ccc2c(c1)c1ncnc(N3CCc4ccccc4C3)c1n2C` here?
The AC50 was 31.6 µM [falling, single point].

For `CCOc1ccccc1-n1c(SCC(=O)N2CCCC2)nnc1-c1ccoc1C`, which AC50 [1] is on record?
Its AC50 is 15.8 µM [falling, partial curve].

With `CCOC(=O)c1cnc2c(C)cc(C)cc2c1Nc1ccc(OCc2ccccc2)cc1` as the molecule, how does the AC50 [1] read?
Its AC50 is 25.1 µM [falling, partial curve].

Which AC50 [1] does the source give for `O=C(CN1CCN(CC(=O)Nc2ccccc2F)CC1)Nc1ccc(Cl)c(C(F)(F)F)c1` here?
The AC50 was 31.6 µM [falling, single point].

For `CCOC(=O)C1=C(C(F)(F)F)Nc2ncnn2C1c1cccc(OC)c1OC` (stereo not given), which AC50 [1] is on record?
Its AC50 is 1.26 µM [rising, full curve].

Which AC50 [1] does the source give for `Cn1c2ccccc2c2nnc(SCN3C(=O)c4ccccc4C3=O)nc21` here?
Its AC50 is 31.6 nM [rising, partial curve, poor fit] [measured here: IkB-luc green channel].

With `Cc1c(CNCCCc2ccccc2)c(C(=O)O)c(C)n1Cc1cccc(Cl)c1` as the molecule, how does the AC50 [1] read?
The AC50 was 15.8 µM [falling, single point].

With `OC[C@@H]1O[C@@H](n2cnc3c(NC4CCCC4)ncnc32)[C@@H](O)[C@H]1O` as the molecule, how does the AC50 [1] read?
Its AC50 is 3.16 µM [rising, full curve] [measured here: IkB-luc green channel].

For `CCC1=C(c2ccc(C)cc2)S(=O)(=O)N=C1N1CCC(C(=O)N2CCCCC2)CC1`, which AC50 [1] is on record?
The AC50 was 20 µM [falling, single point].

With `CCN(CC)S(=O)(=O)c1ccc2oc(SCC3CN=C(c4ccc(OC)cc4)S3)nc2c1` (stereo not given) as the molecule, how does the AC50 [1] read?
Its AC50 is 2 µM [falling, full curve, poor fit].

For `CCn1c(=O)n(CC(=O)NCc2ccccc2OC)c(=O)c2ccccc21`, which AC50 [1] is on record?
The AC50 was 0.631 µM [falling, full curve].

With `CN(Cc1ccccc1)c1ccc(-c2nc(-c3cccnc3)no2)cc1[N+](=O)[O-]` as the molecule, how does the AC50 [1] read?
The AC50 was 2.51 µM [falling, partial curve].

Which AC50 [1] does the source give for `CCN(Cc1ccccc1)S(=O)(=O)c1ccc2[nH]c3c(c2c1)CCCCC3` here?
Its AC50 is 7.94 µM [falling, partial curve].

Which AC50 [1] does the source give for `CCC(C(=O)NCCc1cc(OC)ccc1OC)n1nc(C)c2sc3ccccc3c2c1=O` (stereo not given) here?
Its AC50 is 10 µM [falling, partial curve].

For `Cc1ccc(C)c(N2CCN(C(=O)C3CCN(S(=O)(=O)c4cccc5nsnc45)CC3)CC2)c1`, which AC50 [1] is on record?
Its AC50 is 10 µM [falling, partial curve].

With `CCCCOc1ccc(C(=O)NCCc2csc(-c3ccc(OC)cc3)n2)cc1` as the molecule, how does the AC50 [1] read?
The AC50 was 20 µM [falling, partial curve].

With `Cc1ccc(C(=O)CSc2nnc(CNc3nc(-c4ccccc4)cs3)n2C)cc1` as the molecule, how does the AC50 [1] read?
Its AC50 is 15.8 µM [falling, partial curve].

With `COc1ccccc1NC(=O)Nc1ccc(Br)cn1` as the molecule, how does the AC50 [1] read?
The AC50 was 1.26 µM [falling, full curve].

For `c1cnc2c(OCc3nc4ccccc4[nH]3)cccc2c1`, which AC50 [1] is on record?
The AC50 was 3.98 µM [falling, full curve].

For `Cc1ccc(NS(=O)(=O)c2ccc3[nH]c4c(c3c2)CCCCC4)cc1`, which AC50 [1] is on record?
Its AC50 is 15.8 µM [falling, partial curve].

Which AC50 [1] does the source give for `CC(=O)N1CCc2cc(S(=O)(=O)N3CCN(c4ccc(C)cc4)C(C)C3)ccc21` (stereo not given) here?
The AC50 was 39.8 µM [falling, partial curve, poor fit].
